Some entries share one result that the patent states for a list of compounds. For some assays here: At least one structure is not confirmed: it was looked up by name or label, or the drawing left a doubt.
Assays:
AMARE [1] = test: greenhouse pre-emergence herbicidal test; format: in vivo, Amaranthus retroflexus; details: pre-emergence method, scale from 0 to 100
Source text: (§1) The culture containers used were plastic flowerpots containing loamy sand with approximately 3.0% of humus as the substrate. The seeds of the test plants were sown separately for each species.
(§2) For the pre-emergence treatment, the active ingredients, which had been suspended or emulsified in water, were applied directly after sowing by means of finely distributing nozzles. The containers were irrigated gently to promote germination and growth and subsequently covered with transparent plastic hoods until the test plants had rooted.
(§3) This cover caused uniform germination of the test plants, unless this had been impaired by the active ingredients.
(§4) Depending on the species, the test plants were kept at 10-25° C. or 20-35° C., respectively.
(§5) The test period extended over 2 to 4 weeks. During this time, the test plants were tended, and their response to the individual treatments was evaluated.
(§6) Evaluation was carried out using a scale from 0 to 100. 100 means no emergence of the test plants, or complete destruction of at least the aerial moieties, and 0 means no damage, or normal course of growth. A good herbicidal activity is given at values of 70 to <90 and a very good herbicidal activity is given at values of 90 to 100.
(§7) The test plants used in the greenhouse experiments were of the following species: […]

SETVI [2] = test: greenhouse pre-emergence herbicidal test; format: in vivo, Setaria viridis; details: pre-emergence method, application rate 0.500 kg/ha, scale from 0 to 100
Source text: as §1, §2, §3, §4, §5, §6, §7

ECHCG = test: greenhouse post-emergence herbicidal test; format: in vivo, Echinocloa crus-galli; details: post-emergence method, scale from 0 to 100
AVEFA = test: greenhouse post-emergence herbicidal test; format: in vivo, Avena fatua; details: post-emergence method, scale from 0 to 100
Source text: as §1
(§8) For the post-emergence treatment, the test plants were first grown to a height of 3 to 15 cm, depending on the plant habit, and only then treated with the active ingredients which had been suspended or emulsified in water. For this purpose, the test plants were either sown directly and grown in the same containers, or they were first grown separately as seedlings and transplanted into the test containers a few days prior to treatment.
as §4, §5, §6, §7

LOLMU = test: greenhouse pre-emergence herbicidal test; format: in vivo, Lolium multiflorum; details: pre-emergence method, scale from 0 to 100
Source text: as §1, §2, §3, §4, §5, §6, §7

AMARE [3] = test: greenhouse post-emergence herbicidal test; format: in vivo, Amaranthus retroflexus; details: post-emergence method, scale from 0 to 100
Source text: as §1, §8, §4, §5, §6, §7

ALOMY = test: greenhouse post-emergence herbicidal test; format: in vivo, Alopercurus myosuroides; details: post-emergence method, scale from 0 to 100
Source text: as §1, §8, §4, §5, §6, §7

APESV = test: greenhouse pre-emergence herbicidal test; format: in vivo, Apera spica-venti; details: pre-emergence method, application rate 0.250 kg/ha, scale from 0 to 100
Source text: as §1, §2, §3, §4, §5, §6, §7

SETVI [4] = test: greenhouse post-emergence herbicidal test; format: in vivo, Setaria viridis; details: post-emergence method, application rate 1.000 kg/ha, scale from 0 to 100
Source text: as §1, §8, §4, §5, §6, §7

With `O=C(Nc1cc(F)cc(F)c1)C1(C(=O)OCC(F)F)C=CCO1` (centres unmarked) [1.14] the “herbicidal activity against AMARE” value (AMARE [1]; application rate 0.500 kg/ha) was “good (A good herbicidal activity is given at values of 70 to <90)”, the “herbicidal activity against SETVI” value (SETVI [2]) was “good (A good herbicidal activity is given at values of 70 to <90)” and the “herbicidal activity against ECHCG” value (ECHCG; application rate 0.500 kg/ha) was “very good (a very good herbicidal activity is given at values of 90 to 100)”. The “herbicidal activity against AVEFA” value (AVEFA; application rate 0.500 kg/ha) was “good (A good herbicidal activity is given at values of 70 to <90)”, the “herbicidal activity against LOLMU” value (LOLMU; application rate 0.500 kg/ha) was “good (A good herbicidal activity is given at values of 70 to <90)” and the “herbicidal activity against AMARE” value (AMARE [3]; application rate 0.500 kg/ha) was “good (A good herbicidal activity is given at values of 70 to <90)”.

`O=C(Nc1cc(F)cc(F)c1)C1(C(=O)OCCF)C=CCO1` (centres unmarked) [1.13] was tested, and the “herbicidal activity against AVEFA” value (AVEFA; application rate 0.500 kg/ha) was “very good (a very good herbicidal activity is given at values of 90 to 100)”, the “herbicidal activity against LOLMU” value (LOLMU; application rate 0.500 kg/ha) was “very good (a very good herbicidal activity is given at values of 90 to 100)” and the “herbicidal activity against ALOMY” value (ALOMY; application rate 0.500 kg/ha) was “good (A good herbicidal activity is given at values of 70 to <90)”.

`O=C(O)C1(C(=O)Nc2cc(F)cc(F)c2)CCO1` (centres unmarked) [compound 11.5] was tested, and the “herbicidal activity against APESV” value (APESV) was “good (A good herbicidal activity is given at values of 70 to <90)”, the “herbicidal activity against AVEFA” value (AVEFA; application rate 0.250 kg/ha) was “very good (a very good herbicidal activity is given at values of 90 to 100)” and the “herbicidal activity against ALOMY” value (ALOMY; application rate 0.250 kg/ha) was “good (A good herbicidal activity is given at values of 70 to <90)”.

For `O=C(O)C1(C(=O)Nc2cc(F)cc(F)c2)CC=CO1` (centres unmarked) [compound 1.26, 2-[(3,5-difluorophenyl)carbamoyl]-3H-furan-2-carboxylate], the “herbicidal activity against AMARE” value (AMARE [1]; application rate 1.000 kg/ha) was “very good (a very good herbicidal activity is given at values of 90 to 100)” and the “herbicidal activity against ECHCG” value (ECHCG; application rate 1.000 kg/ha) was “very good (a very good herbicidal activity is given at values of 90 to 100)”.

With `O=C(Nc1cc(F)cc(F)c1)C1(C(=O)OCc2ccco2)C=CCO1` (centres unmarked) [1.16] the “herbicidal activity against AMARE” value (AMARE [1]; application rate 0.500 kg/ha) was “good (A good herbicidal activity is given at values of 70 to <90)”, the “herbicidal activity against AVEFA” value (AVEFA; application rate 0.500 kg/ha) was “very good (a very good herbicidal activity is given at values of 90 to 100)” and the “herbicidal activity against LOLMU” value (LOLMU; application rate 0.500 kg/ha) was “good (A good herbicidal activity is given at values of 70 to <90)”. For the same compound, the “herbicidal activity against ALOMY” value (ALOMY; application rate 0.500 kg/ha) was “good (A good herbicidal activity is given at values of 70 to <90)”.

With “cyclopropylmethyl 5-[(3,5-dichlorophenyl)carbamoyl]-2H-furan-5-carbox late [1.18]” the “herbicidal activity against SETVI” value (SETVI [2]) was “good (A good herbicidal activity is given at values of 70 to <90)”, the “herbicidal activity against ECHCG” value (ECHCG; application rate 0.500 kg/ha) was “very good (a very good herbicidal activity is given at values of 90 to 100)” and the “herbicidal activity against AVEFA” value (AVEFA; application rate 0.500 kg/ha) was “very good (a very good herbicidal activity is given at values of 90 to 100)”. For the same compound, the “herbicidal activity against LOLMU” value (LOLMU; application rate 0.500 kg/ha) was “very good (a very good herbicidal activity is given at values of 90 to 100)”.

`O=C(Nc1cc(F)cc(F)c1)C1(C(=O)OCc2ccccc2)C=CCO1` (centres unmarked) [1.17] was tested, and the “herbicidal activity against ECHCG” value (ECHCG; application rate 0.500 kg/ha) was “good (A good herbicidal activity is given at values of 70 to <90)”, the “herbicidal activity against AVEFA” value (AVEFA; application rate 0.500 kg/ha) was “good (A good herbicidal activity is given at values of 70 to <90)” and the “herbicidal activity against LOLMU” value (LOLMU; application rate 0.500 kg/ha) was “good (A good herbicidal activity is given at values of 70 to <90)”. The “herbicidal activity against ALOMY” value (ALOMY; application rate 0.500 kg/ha) was “good (A good herbicidal activity is given at values of 70 to <90)”.

`CCC1C=CC(C(=O)O)(C(=O)Nc2cc(Cl)cc(Cl)c2)O1` (centres unmarked) [1.5] was tested, and the “herbicidal activity against APESV” value (APESV) was “good (A good herbicidal activity is given at values of 70 to <90)”.

With `O=C(Nc1cc(F)cc(F)c1)C1(C(=O)OC2CCC2)C=CCO1` (centres unmarked) [1.19] the “herbicidal activity against ECHCG” value (ECHCG; application rate 0.500 kg/ha) was “good (A good herbicidal activity is given at values of 70 to <90)”, the “herbicidal activity against AVEFA” value (AVEFA; application rate 0.500 kg/ha) was “good (A good herbicidal activity is given at values of 70 to <90)” and the “herbicidal activity against LOLMU” value (LOLMU; application rate 0.500 kg/ha) was “very good (a very good herbicidal activity is given at values of 90 to 100)”. The “herbicidal activity against ALOMY” value (ALOMY; application rate 0.500 kg/ha) was “good (A good herbicidal activity is given at values of 70 to <90)”.

In the case of `CCOC(=O)C1(C(=O)Nc2cc(Cl)cc(Cl)c2)C=CCO1` (centres unmarked) [1.1, ethyl 5-[(3,5-dichlorophenyl)carbamoyl]-2H-furan-5-carboxylate], the “herbicidal activity against APESV” value (APESV) is reported as “good (A good herbicidal activity is given at values of 70 to <90)”, the “herbicidal activity against AVEFA” value (AVEFA; application rate 0.250 kg/ha) is reported as “good (A good herbicidal activity is given at values of 70 to <90)” and the “herbicidal activity against ALOMY” value (ALOMY; application rate 0.250 kg/ha) is reported as “good (A good herbicidal activity is given at values of 70 to <90)”.

For `CCOC(=O)C1(C(=O)Nc2cc(Cl)cc(Cl)c2)CCO1` (centres unmarked) [compound 11.1, ethyl 2-[(3,5-dichlorophenyl)carbamoyl]oxetane-2-carboxylate], the “herbicidal activity against AMARE” value (AMARE [1]; application rate 1.000 kg/ha) was “very good (a very good herbicidal activity is given at values of 90 to 100)”, the “herbicidal activity against SETVI” value (SETVI [4]) was “very good (a very good herbicidal activity is given at values of 90 to 100)” and the “herbicidal activity against ECHCG” value (ECHCG; application rate 1.000 kg/ha) was “very good (a very good herbicidal activity is given at values of 90 to 100)”. For the same compound, the “herbicidal activity against AMARE” value (AMARE [3]; application rate 1.000 kg/ha) was “very good (a very good herbicidal activity is given at values of 90 to 100)”.

`CS(=O)(=O)CCOC(=O)C1(C(=O)Nc2cc(F)cc(F)c2)C=CCO1` (centres unmarked) [1.10] was tested, and the “herbicidal activity against ECHCG” value (ECHCG; application rate 0.250 kg/ha) was “good (A good herbicidal activity is given at values of 70 to <90)”, the “herbicidal activity against AVEFA” value (AVEFA; application rate 0.250 kg/ha) was “good (A good herbicidal activity is given at values of 70 to <90)” and the “herbicidal activity against LOLMU” value (LOLMU; application rate 0.250 kg/ha) was “good (A good herbicidal activity is given at values of 70 to <90)”. For the same compound, the “herbicidal activity against ALOMY” value (ALOMY; application rate 0.250 kg/ha) was “good (A good herbicidal activity is given at values of 70 to <90)”.

With “5-[(3,5-dichlorophenyl)carbamoyl]-hydrofuran-5-carboxylic acid [compound 1.2]” the “herbicidal activity against APESV” value (APESV) was “good (A good herbicidal activity is given at values of 70 to <90)” and the “herbicidal activity against AVEFA” value (AVEFA; application rate 0.250 kg/ha) was “good (A good herbicidal activity is given at values of 70 to <90)”.
